Laboratory results as given in patent US4146628A, “Antiarrhythmic quinuclidine carboxylic acid xylidide and method of producing the same and similar compounds” (priority 1977, dated 1979).

Assay: Summary comparison with lidocaine: side effects
Details: summary table

In the case of `CCN(CC)CC(=O)Nc1c(C)cccc1C` [Lidocaine], the “Side effects: CNS-effects” value is reported as “extensive”.
